The source of these data is paper PMC7179445 (Molecules, 2020).

A short description of this data set: general procedure: solution-phase peptide synthesis; ethyl chloroformate / N-methylmorpholine (mixed anhydride). Particulars: for cyclisation yield: cyclisation step.

Take “Cyclo-(N^α-dipicolinoyl)-bis-[(L-ILe-L-ILe-L-Phe)-L-Lys methyl ester]”: the cyclisation yield came out at 82%.

In the case of “Cyclo-(N^α-dipicolinoyl)-bis-[(L-ILe-L-Ile-L-Phe)-L-Lys carboxylic acid]”, the step yield (late stage modification step) was found to be 70%.

Substance “Cyclo-(N^α-dipicolinoyl)-bis-[(L-ILe-L-Phe-L-Ile)-L-Lys carboxylic acid]” returned a step yield (late stage modification step) of 65%.

As for “Cyclo-(N^α-dipicolinoyl)-bis-[(L-ILe-L-Phe-L-Ile)-L-Lys methyl ester]”, the cyclisation yield is reported as 70%.

“Cyclo-(N^α-dipicolinoyl)-bis-[(L-Ile-L-Ile-L-Phe)-L-Lys acid hydrazide]” gave a step yield (late stage modification step) of 75%.

“Cyclo-(N^α-dipicolinoyl)-bis-[(L-Ile-L-Phe-L-Ile)-L-Lys acid hydrazide]” had a step yield (late stage modification step) of 70%.

“Cyclo-(N^α-dipicolinoyl)-bis-[(L-Phe-L-ILe-L-Ile)-L-Lys acid hydrazide]” registered a step yield (late stage modification step) of 74%.

Regarding “Cyclo-(N^α-dipicolinoyl)-bis-[(L-Phe-L-ILe-L-Ile)-L-Lys carboxylic acid]”, the step yield (late stage modification step) was determined as 90%.

Regarding “Cyclo-(N^α-dipicolinoyl)-bis-[(L-Phe-L-ILe-L-Ile)-L-Lys methyl ester]”, the cyclisation yield is recorded as 85%.

The substance “N^α-Dipicolinoyl-bis[L-ILe-L-L-Phe-ILe-methyl ester]” yielded a step yield (coupling step) of 73%.

“N^α-Dipicolinoyl-bis[L-ILe-L-Phe-L-ILe-carboxylic acid]” displayed a step yield (late stage modification step) of 82%.

As for “N^α-Dipicolinoyl-bis[L-Phe-L-ILe-L-ILe-carboxylic acid]”, the step yield (late stage modification step) worked out at 66%.

As to “N^α-Dipicolinoyl-bis[L-Phe-L-ILe-L-ILe-methyl ester]”, under “coupling step”, the step yield was 70%.
